PubChem BioAssay AID504784 | Drosophila RNAi Screening Center, 2011

Test: 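Genome-wide knock-down for genes giving too much or too little stored lipid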 (primary screen)
Cells: Drosophila Kc167 embryonic cells
Knock-down reagent: long dsRNA against Drosophila genes, about 250 ng dsRNA per well
Timing: 4 days
Challenge: cells fed 400 µM oleic acid bound to BSA
Measured: 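Microscope images give a droplet-to-nucleus area ratio, taken as log and converted to a screen-wide B-score; higher values mean greater lipid storage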
Direction: droplet/nuclear area B-score: higher = more stored lipid (overstorage)
In all, the deposit lists about 17,000 reagents; below is a random part of those that have a named target and a result. 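Each column is one replicate's B-score; the combined score over replicates was not deposited, so single values may mislead.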 A plus sign joins genes that one reagent is predicted to hit. Not all columns of the deposit are shown.

CG12637 [DRSC17845] — droplet/nuclear area B-score, replicate 1 = -0.491
ThrRS [DRSC02843] — droplet/nuclear area B-score, replicate 1 = 0.565
kmg [DRSC02829] — droplet/nuclear area B-score, replicate 1 = 1.02
Set2 [DRSC19765] — droplet/nuclear area B-score, replicate 1 = 1.67
fs(1)Yb [DRSC18777] — droplet/nuclear area B-score, replicate 1 = -0.307
CG31960 [DRSC00281] — droplet/nuclear area B-score, replicate 1 = -0.242
CG31922 [DRSC21703] — droplet/nuclear area B-score, replicate 1 = 1.72
Rpp20 + CG33932 [DRSC19467] — droplet/nuclear area B-score, replicate 1 = 0.892
dila [DRSC06607] — droplet/nuclear area B-score, replicate 1 = -2.24
Gart [DRSC03481] — droplet/nuclear area B-score, replicate 1 = -0.12
Muc11A [DRSC19498] — droplet/nuclear area B-score, replicate 1 = 0.0235
Cerk [DRSC12285] — droplet/nuclear area B-score, replicate 1 = -2.45
CG42399 [DRSC00322] — droplet/nuclear area B-score, replicate 1 = 1.92
CG42399 [DRSC00661] — droplet/nuclear area B-score, replicate 1 = 0.182
CG33557 [DRSC17854] — droplet/nuclear area B-score, replicate 1 = -1.85
CG14237 [DRSC14731] — droplet/nuclear area B-score, replicate 1 = -1.95
CG14237 [DRSC23239] — droplet/nuclear area B-score, replicate 1 = 0.0257
conu [DRSC07810] — droplet/nuclear area B-score, replicate 1 = -0.00689

A stretch taken from the entries so far, as a working copy:
CG31922 [DRSC21703] — droplet/nuclear area B-score, replicate 1 = 1.72
Rpp20 + CG33932 [DRSC19467] — droplet/nuclear area B-score, replicate 1 = 0.892
dila [DRSC06607] — droplet/nuclear area B-score, replicate 1 = -2.24

More entries:
IFT54 [DRSC15469] — droplet/nuclear area B-score, replicate 1 = -0.397
CG15126 [DRSC06548] — droplet/nuclear area B-score, replicate 1 = -1.48
Or98a [DRSC16774] — droplet/nuclear area B-score, replicate 1 = 0.898
nenya [DRSC13838] — droplet/nuclear area B-score, replicate 1 = 2.21
l(3)72Dp [DRSC10477] — droplet/nuclear area B-score, replicate 1 = 0.365
CG7963 [DRSC16355] — droplet/nuclear area B-score, replicate 1 = -0.288
CG4751 [DRSC02776] — droplet/nuclear area B-score, replicate 1 = -0.196
RpL28 + snoRNA:Or-CD12 [DRSC08293] — droplet/nuclear area B-score, replicate 1 = 2.01
ato [DRSC16904] — droplet/nuclear area B-score, replicate 1 = 1.4
CG31675 [DRSC01825] — droplet/nuclear area B-score, replicate 1 = -0.786
CG4116 [DRSC18348] — droplet/nuclear area B-score, replicate 1 = 0.122
Atg14 [DRSC14421] — droplet/nuclear area B-score, replicate 1 = -0.385
CG33217 [DRSC22907] — droplet/nuclear area B-score, replicate 1 = 1.17
g [DRSC20335] — droplet/nuclear area B-score, replicate 1 = -0.382
mrva [DRSC11009] — droplet/nuclear area B-score, replicate 1 = -1.66
mrva [DRSC21842] — droplet/nuclear area B-score, replicate 1 = -1.49
Syt4 [DRSC12606] — droplet/nuclear area B-score, replicate 1 = -0.0706
CG11034 [DRSC02121] — droplet/nuclear area B-score, replicate 1 = 0.345
CG11034 [DRSC02122] — droplet/nuclear area B-score, replicate 1 = 0.612
5-HT2A [DRSC11990] — droplet/nuclear area B-score, replicate 1 = 0.632
CG13295 [DRSC09969] — droplet/nuclear area B-score, replicate 1 = -1.87
CtsB [DRSC19361] — droplet/nuclear area B-score, replicate 1 = 0.612
